According to paper PMC7872283:
No constants are given. Whether binding was seen depends on the method and setting. In cells and extracts the contact can be indirect. Some binding calls cover weakened binding; strength is not graded here. For some of these results: Sequences can lack the tags named with a protein.

By UniProt entry, the sequences of proteins in these tests, tags left out.
UniProt P09874: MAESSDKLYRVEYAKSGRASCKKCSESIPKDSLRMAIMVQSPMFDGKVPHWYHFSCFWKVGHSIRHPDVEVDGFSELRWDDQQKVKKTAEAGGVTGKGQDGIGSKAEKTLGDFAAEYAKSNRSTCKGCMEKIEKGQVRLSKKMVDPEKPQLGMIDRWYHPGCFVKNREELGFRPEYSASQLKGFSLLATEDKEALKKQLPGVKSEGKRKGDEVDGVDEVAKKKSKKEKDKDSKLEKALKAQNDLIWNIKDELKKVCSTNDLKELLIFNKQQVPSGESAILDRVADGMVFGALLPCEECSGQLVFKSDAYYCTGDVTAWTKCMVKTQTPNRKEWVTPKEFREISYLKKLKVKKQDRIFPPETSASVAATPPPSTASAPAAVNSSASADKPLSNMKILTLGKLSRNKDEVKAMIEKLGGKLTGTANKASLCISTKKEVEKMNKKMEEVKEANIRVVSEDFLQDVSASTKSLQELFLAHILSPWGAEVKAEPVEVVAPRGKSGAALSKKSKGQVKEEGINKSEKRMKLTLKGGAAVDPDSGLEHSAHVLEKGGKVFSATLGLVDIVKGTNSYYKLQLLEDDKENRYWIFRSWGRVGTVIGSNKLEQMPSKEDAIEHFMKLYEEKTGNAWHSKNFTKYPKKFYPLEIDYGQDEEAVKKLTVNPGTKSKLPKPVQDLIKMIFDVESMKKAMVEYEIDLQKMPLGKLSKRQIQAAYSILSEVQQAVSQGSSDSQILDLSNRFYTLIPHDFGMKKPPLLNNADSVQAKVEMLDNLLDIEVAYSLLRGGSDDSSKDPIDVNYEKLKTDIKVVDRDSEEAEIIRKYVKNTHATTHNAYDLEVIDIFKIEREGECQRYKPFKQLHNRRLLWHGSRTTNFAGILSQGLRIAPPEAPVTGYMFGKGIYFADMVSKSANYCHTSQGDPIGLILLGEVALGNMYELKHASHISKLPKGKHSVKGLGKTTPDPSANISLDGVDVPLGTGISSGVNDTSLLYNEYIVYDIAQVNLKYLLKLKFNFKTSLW

Experiments:
Test in all cases: co-IP
[1] = target: T1, FLAG-tagged checkpoint with FHA and RING finger domains (CHFR) (UniProt Q96EP1)
T1 sequence: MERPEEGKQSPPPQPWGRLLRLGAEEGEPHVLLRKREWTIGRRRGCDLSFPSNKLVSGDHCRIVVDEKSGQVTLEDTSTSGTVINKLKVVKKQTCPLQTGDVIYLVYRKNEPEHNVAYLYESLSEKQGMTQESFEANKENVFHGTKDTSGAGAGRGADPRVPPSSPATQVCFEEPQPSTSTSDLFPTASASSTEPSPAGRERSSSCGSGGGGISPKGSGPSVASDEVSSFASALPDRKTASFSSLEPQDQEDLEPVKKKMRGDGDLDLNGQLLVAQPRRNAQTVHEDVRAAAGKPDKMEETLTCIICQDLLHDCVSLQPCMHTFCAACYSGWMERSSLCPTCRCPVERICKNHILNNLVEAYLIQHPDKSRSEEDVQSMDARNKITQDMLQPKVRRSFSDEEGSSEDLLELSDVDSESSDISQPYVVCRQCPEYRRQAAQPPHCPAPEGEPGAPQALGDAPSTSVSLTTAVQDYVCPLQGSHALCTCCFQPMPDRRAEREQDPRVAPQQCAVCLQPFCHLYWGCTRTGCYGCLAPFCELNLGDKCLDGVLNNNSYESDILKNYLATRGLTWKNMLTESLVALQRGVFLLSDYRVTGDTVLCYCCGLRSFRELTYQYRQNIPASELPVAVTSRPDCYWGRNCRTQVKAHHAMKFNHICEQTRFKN

[2] = target: T2, FLAG-tagged ring finger protein 144A (RNF144A) (human (cDNA of BC-3 cells)) (UniProt P50876)
T2 sequence: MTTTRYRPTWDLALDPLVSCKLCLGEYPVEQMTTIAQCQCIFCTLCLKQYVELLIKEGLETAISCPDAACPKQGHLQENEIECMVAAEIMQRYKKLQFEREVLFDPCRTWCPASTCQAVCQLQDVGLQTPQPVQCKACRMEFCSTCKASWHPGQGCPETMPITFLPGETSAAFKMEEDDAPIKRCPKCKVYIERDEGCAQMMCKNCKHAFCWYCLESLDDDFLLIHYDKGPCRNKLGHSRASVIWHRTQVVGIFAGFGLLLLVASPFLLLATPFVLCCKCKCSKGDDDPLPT

[3] = target: T3, FLAG-tagged ubiquitin-like with PHD and RING finger domains 1 (UHRF1) (UniProt Q96T88)
T3 sequence: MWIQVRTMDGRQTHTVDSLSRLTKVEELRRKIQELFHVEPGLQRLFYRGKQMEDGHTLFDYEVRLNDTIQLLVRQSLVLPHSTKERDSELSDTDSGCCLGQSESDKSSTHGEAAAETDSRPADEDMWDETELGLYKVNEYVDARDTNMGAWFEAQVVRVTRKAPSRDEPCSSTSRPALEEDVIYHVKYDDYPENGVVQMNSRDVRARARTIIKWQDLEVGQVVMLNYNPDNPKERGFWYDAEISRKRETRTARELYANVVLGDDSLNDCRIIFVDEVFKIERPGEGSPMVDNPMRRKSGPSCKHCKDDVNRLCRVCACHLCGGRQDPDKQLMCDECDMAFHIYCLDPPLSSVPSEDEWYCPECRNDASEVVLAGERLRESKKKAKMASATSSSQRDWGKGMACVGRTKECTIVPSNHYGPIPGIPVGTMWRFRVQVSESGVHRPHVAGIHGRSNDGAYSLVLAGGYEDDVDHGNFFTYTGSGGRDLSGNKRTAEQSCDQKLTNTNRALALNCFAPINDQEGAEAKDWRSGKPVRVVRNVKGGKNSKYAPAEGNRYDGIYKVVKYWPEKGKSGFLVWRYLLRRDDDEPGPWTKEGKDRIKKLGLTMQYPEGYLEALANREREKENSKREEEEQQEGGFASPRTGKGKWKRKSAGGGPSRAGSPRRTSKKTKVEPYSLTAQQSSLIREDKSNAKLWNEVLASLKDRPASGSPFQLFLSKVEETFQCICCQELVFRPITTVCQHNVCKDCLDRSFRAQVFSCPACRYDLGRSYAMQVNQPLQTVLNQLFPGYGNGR

[4] = target: endogenous poly(ADP-ribose) polymerase 1 (PARP1) (human (endogenous in HEK293T)) (UniProt P09874)

In the case of “endogenous poly(ADP-ribose) polymerase 1 (PARP1) (from UniProt P09874 1-1014)”, the binding [1] is reported as “binds”, the binding [2] is reported as “binds” and the binding [3] is reported as “binds”.

With “FLAG-tagged CHFR I306A (from UniProt Q96EP1 1-664) (enzyme)” the binding [4] was “binds”.
